Measured values: doi:10.1101/2021.08.18.456837
No constants are given. Whether binding was seen depends on the method and setting. For part of these data: Binding seen in cells or lysates may run through a third protein. Sequences can lack the tags named with a protein.

Chains of the proteins cited; added tags and fusions are not shown.
UniProt Q9LYG9: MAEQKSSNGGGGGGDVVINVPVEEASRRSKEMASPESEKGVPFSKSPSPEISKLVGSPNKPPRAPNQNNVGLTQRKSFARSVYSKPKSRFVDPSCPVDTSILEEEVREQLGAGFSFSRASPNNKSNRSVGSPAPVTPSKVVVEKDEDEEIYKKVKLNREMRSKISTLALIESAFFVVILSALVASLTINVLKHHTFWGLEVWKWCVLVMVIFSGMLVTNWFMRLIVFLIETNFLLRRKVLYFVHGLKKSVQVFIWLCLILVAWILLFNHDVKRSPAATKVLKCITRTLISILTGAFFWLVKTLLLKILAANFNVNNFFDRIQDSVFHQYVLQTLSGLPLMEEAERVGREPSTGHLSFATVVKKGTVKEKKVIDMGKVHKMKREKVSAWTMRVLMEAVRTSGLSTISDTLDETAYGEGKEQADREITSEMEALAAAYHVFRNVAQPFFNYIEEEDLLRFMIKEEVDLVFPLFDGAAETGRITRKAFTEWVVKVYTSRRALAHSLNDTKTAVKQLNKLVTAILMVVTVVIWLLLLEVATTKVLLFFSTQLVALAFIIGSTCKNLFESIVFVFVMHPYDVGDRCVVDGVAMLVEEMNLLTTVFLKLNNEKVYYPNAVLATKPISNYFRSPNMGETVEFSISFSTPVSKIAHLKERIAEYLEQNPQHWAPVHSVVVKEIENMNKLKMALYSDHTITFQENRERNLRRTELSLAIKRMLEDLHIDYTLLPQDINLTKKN
UniProt P27323: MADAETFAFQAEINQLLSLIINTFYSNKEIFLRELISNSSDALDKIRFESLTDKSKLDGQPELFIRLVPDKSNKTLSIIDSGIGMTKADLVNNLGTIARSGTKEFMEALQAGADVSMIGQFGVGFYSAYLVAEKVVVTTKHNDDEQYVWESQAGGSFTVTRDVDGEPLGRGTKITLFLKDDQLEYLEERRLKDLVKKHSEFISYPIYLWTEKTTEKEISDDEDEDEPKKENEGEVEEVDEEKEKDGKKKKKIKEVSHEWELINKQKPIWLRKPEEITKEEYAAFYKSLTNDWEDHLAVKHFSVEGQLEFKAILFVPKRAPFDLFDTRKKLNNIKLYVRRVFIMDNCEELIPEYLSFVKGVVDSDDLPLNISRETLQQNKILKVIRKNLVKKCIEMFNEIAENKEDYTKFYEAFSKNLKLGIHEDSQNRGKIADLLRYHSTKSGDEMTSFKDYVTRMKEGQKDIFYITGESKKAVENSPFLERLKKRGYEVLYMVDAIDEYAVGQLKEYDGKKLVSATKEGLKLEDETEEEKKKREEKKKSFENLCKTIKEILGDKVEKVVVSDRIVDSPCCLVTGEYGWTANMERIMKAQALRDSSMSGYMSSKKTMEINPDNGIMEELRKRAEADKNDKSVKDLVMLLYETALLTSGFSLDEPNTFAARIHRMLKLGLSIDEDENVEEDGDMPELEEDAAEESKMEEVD

B1: SUPPRESSOR of G2 ALLELE of SKP1 b (SGT1b), split-ubiquitin (mbSUS) fusion (protein, UniProt Q9SUT5 1-358)
chain: MAKELAEKAKEAFLDDDFDVAVDLYSKAIDLDPNCAAFFADRAQANIKIDNFTEAVVDANKAIELEPTLAKAYLRKGTACMKLEEYSTAKAALEKGASVAPNEPKFKKMIDECDLRIAEEEKDLVQPMPPSLPSSSTTPLATEADAPPVPIPAAPAKPMFRHEFYQKPEEAVVTIFAKKVPKENVTVEFGEQILSVVIDVAGEEAYHLQPRLFGKIIPEKCRFEVLSTKVEIRLAKAEIITWASLEYGKGQSVLPKPNVSSALSQRPVYPSSKPAKDWDKLEAEVKKQEKDEKLDGDAAMNKFFSDIYSSADEDMRRAMNKSFAESNGTVLSTNWKEVGTKKVESTPPDGMELKKWEY
B2: REQUIRED for MLAI2 … (RAR1), split-ubiquitin (mbSUS) fusion (protein, UniProt Q9SE33 1-226)
chain: MEVGSATKKLQCQRIGCNAMFTDDDNPQGSCQFHASGPFFHDGMKEWSCCKQRSHDFSLFLEIPGCKTGKHTTEKPVLAKSVPKHPVAAPTSSPDANAATKDSCSRCRQGFFCSDHGSQPKEQIKQTLNTPGQAEEEKIEPLAPPVQKAVIDINQPQVCKNKGCGQTFKERDNHETACSHHPGPAVFHDRLRGWKCCDVHVKEFDEFMEIPPCTKGWHSSSPDPAV
B3: SUPPRESSOR of G2 ALLELE of SKP1 b (SGT1b), BiFC fusion (protein, UniProt Q9SUT5 1-358)
chain: B1 chain
B4: REQUIRED for MLAI2 … (RAR1), BiFC fusion (protein, UniProt Q9SE33 1-226)
chain: B2 chain

Each molecule was assayed against MscS-Like (MSL)10, split-ubiquitin (mbSUS) fusion (Arabidopsis thaliana) (UniProt Q9LYG9) (assay: two-hybrid).

Molecule | binding
HEAT SHOCK PROTEIN 90 kD HSP90.1, split-ubiquitin (mbSUS) fusion (from UniProt P27323 1-700) | no binding
B1 | no binding
B2 | no binding

These molecules were tested against MscS-Like (MSL)10, BiFC fusion (Arabidopsis thaliana) (UniProt Q9LYG9) (assay: split reporter).

Molecule | binding
HEAT SHOCK PROTEIN 90 kD HSP90.1, BiFC fusion (from UniProt P27323 1-700) | no binding
B3 | no binding
B4 | no binding
